Measurements from patent US9388112B2, “Bisphenol derivatives and their use as androgen receptor activity modulators” (The University of British Columbia, priority 2010, dated 2016).
For at least one compound, name, drawing or mass did not settle the structure.

Molecular target: T1, androgen receptor (AR) (Homo sapiens, UniProt P10275, T878A)
T1 construct: LNCaP cells express endogenous AR; endogenous in cells; host or cells: LNCaP cells
T1 sequence (P10275 1-920 T878A): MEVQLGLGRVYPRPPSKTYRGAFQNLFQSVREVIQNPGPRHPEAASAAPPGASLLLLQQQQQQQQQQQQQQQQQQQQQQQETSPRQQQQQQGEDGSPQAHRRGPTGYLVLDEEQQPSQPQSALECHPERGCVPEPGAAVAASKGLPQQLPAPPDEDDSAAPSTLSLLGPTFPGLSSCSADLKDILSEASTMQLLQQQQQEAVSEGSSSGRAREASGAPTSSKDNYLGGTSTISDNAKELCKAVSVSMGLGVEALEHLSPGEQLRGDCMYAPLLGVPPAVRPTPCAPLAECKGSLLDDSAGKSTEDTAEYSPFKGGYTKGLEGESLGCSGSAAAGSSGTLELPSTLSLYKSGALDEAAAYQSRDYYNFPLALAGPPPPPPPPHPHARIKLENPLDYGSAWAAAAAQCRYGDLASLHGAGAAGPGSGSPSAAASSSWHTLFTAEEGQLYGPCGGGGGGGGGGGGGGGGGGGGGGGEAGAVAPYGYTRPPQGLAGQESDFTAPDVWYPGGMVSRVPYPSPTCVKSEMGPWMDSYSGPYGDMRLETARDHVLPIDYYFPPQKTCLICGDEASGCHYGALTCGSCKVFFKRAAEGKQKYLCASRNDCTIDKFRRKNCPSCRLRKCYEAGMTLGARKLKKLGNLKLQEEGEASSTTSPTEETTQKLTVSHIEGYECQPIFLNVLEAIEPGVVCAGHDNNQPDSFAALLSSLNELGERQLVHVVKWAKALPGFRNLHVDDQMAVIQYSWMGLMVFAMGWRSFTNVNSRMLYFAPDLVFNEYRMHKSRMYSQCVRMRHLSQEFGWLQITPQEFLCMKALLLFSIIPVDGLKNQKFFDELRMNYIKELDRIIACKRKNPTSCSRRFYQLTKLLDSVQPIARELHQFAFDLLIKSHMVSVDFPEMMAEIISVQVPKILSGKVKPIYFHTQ
Test: LNCaP PSA (6.1 kb)-luciferase assay (R1881-induced)
Assay type: cell-based
Conditions: versus DMSO and EPI-001 controls
From the text: LNCaP cells were employed initially for all experiments because they are well-differentiated human prostate cancer cells in which ligand-independent activation of the AR by FSK has been characterized (Nazareth et al 1996 J. Biol. Chem. 271, 19900-19907; and Sadar 1999 J. Biol. Chem. 274, 7777-7783). LNCaP cells express endogenous AR and secrete prostate-specific antigen (PSA) (Horoszewicz et al 1983 Cancer Res. 43, 1809-1818). LNCaP cells can be grown either as monolayers in cell culture or as tumors in the well-characterized xenograft model that progresses to androgen independence in castrated hosts (Sato et al 1996 J. Steroid Biochem. Mol. Biol. 58, 139-146; Gleave et al 1991 Cancer Res. 51, 3753-3761; Sato et al 1997 Cancer Res. 57, 1584-1589; and Sadar et al 2002 Mol. Cancer Ther. 1(8), 629-637). […] Small molecules that specifically target the AR-NTD should have no effect on PC3 cells. […] Reporter specificity may be determined using several alternative reporter gene constructs. […]
LNCaP cells were transiently cotransfected with PSA (6.1 kb)-luciferase (0.25 μg/well) in 24-well plates for 24 h prior to pre-treatment with compounds for 1 hour before the addition of synthetic androgen, R1881 (1 nM) to induce PSA production or vehicle. […] After 48 h of incubation with R1881, the cells were harvested, and relative luciferase activity was determined. […]

CC(C)(c1ccc(OCCCCl)cc1)c1ccc(OCCOCCOCCO)cc1 [EPI-041]
androgen receptor modulating activity: showed androgen receptor modulating activity
